The test addresses T1, mDDO (mouse D-aspartate oxidase) (Mus musculus, UniProt Q922Z0).
T1 sequence (Q922Z0 1-341): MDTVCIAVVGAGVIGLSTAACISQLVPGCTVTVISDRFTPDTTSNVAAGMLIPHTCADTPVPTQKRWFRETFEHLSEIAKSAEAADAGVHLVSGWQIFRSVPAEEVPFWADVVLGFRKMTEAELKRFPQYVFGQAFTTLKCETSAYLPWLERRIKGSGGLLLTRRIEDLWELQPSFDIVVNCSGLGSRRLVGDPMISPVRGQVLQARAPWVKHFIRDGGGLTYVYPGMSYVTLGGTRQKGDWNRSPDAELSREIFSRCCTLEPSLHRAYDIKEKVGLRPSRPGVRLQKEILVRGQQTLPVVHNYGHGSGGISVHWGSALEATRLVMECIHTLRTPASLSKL
Description: biochemical. Details: gene Ddo.

Our source for the IC50 values is publication PMC5385520, “Olanzapine, but not clozapine, increases glutamate release in the prefrontal cortex of freely moving mice by inhibiting D-aspartate oxidase activity” (Scientific Reports, 2017).

The term IC50 denotes the concentration needed to halve the response being measured. Low readings indicate higher potency, high ones lower potency. `Cc1cc2c(s1)Nc1ccccc1N=C2N1CCN(C)CC1` [olanzapine] showed an IC50 of 5.6 ± 0.8 µM.
